PubChem BioAssay AID686937, Drosophila RNAi Screening Center – 2013
The deposit covers about 23,000 reagents; shown is a random part of those that have a named target and a result. 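Reduced-secretion tags in replicate 1 do not always agree with the z-scores; no criterion for assigning the tags was given.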 A plus sign joins genes that one reagent is predicted to hit. No sequences are given here. Not given: the amount of reagent.

Purpose: 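Knock-downs that reduce output of a secreted reporter enzyme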 (primary screen)
System: Drosophila S2 cells expressing secreted horseradish peroxidase
Knock-down reagent: long dsRNA against Drosophila genes
Duration: about 5.5 days (5 days dsRNA, then 12 h reporter induction)
Treatment: reporter expression induced after 5 days of dsRNA, read 12 h later; inducer not stated
Measurement: 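After 5 days of dsRNA and 12 h of reporter induction, medium peroxidase read by chemiluminescence and scored as per-plate z-score; higher values mean more reporter released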
Scale: z-score: higher = more reporter secreted into medium

predicted target | PubChem SID | z-score, replicate 1 | z-score, replicate 2 | z-score, replicate 3 | z-score, replicate 4 | phenotype, replicate 1
CG14410 (GeneID 32409) | SID104199388 | 0.35 | 0.52 | – | – | –
GstE1 (GeneID 37106) | SID104187229 | 0.21 | 0.28 | – | – | –
CG17364 (GeneID 39543) | SID104190061 | 0.5 | 0.18 | – | – | –
CG17364 (GeneID 39543) | SID104190062 | 0.25 | 0.52 | -0.01 | 0.39 | –
CG17364 (GeneID 39543) | SID104202079 | 0.43 | -0.57 | – | – | –
CG11474 (GeneID 37514) | SID104183904 | 0.36 | 0.26 | – | – | –
Vha100-4 (GeneID 42214) | SID104196074 | 0.38 | 0.52 | – | – | –
cola + swif | SID104186618 | 0.29 | 0.2 | – | – | –
cola + swif | SID104201576 | -0.3 | -0.06 | – | – | –
mRpL15 (GeneID 40261) | SID104191563 | 0.01 | 0.05 | – | – | –
smo (GeneID 33196) | SID104180629 | 0.27 | 0.27 | – | – | –
disco (GeneID 32579) | SID104200115 | -0.15 | 0.52 | – | – | –
CG31103 (GeneID 43030) | SID104201825 | 0.14 | -0.25 | – | – | –
Atg7 (GeneID 37141) | SID104185533 | 0.44 | 0.36 | – | – | –
Atg7 (GeneID 37141) | SID104186729 | 0.26 | 0.18 | – | – | –
Cpr76Bc (GeneID 40122) | SID104190854 | 0.41 | 0.21 | – | – | –
CG12689 (GeneID 31676) | SID104197671 | 0.3 | 0.51 | – | – | –
Smr (GeneID 32225) | SID104199287 | -3.17 | -2.55 | – | – | reduced secretion
Smr (GeneID 32225) | SID104200080 | -3.13 | -3.29 | – | – | reduced secretion
Cul3 (GeneID 34896) | SID104183329 | -0.16 | -0.12 | – | – | –
Cul3 (GeneID 34896) | SID104201245 | 0.18 | -0.17 | – | – | –
Gabat (GeneID 40188) | SID104190638 | 0.17 | 0.27 | – | – | –
CG42516 + Pbp49 | SID104185865 | 0.46 | 0.41 | – | – | –
CG34452 (GeneID 5740876) | SID104189179 | 0.3 | 0.16 | – | – | –
CG33346 (GeneID 2768690) | SID104202257 | -0.37 | -0.2 | – | – | –
spn-E (GeneID 41919) | SID104196856 | 0.38 | 0.34 | – | – | –
CG1492 (GeneID 32164) | SID104199397 | -0.37 | -0.29 | – | – | –
CG12391 (GeneID 36170) | SID104185939 | 0.46 | 0.4 | – | – | –
Srp68 (GeneID 39028) | SID104190267 | -1.63 | -1.93 | – | – | reduced secretion
CG13308 (GeneID 39011) | SID104189771 | 0.13 | 0.26 | – | – | –
l(3)mbt (GeneID 43288) | SID104196775 | 0.25 | 0.35 | – | – | –
CG42717 (GeneID 10178897) | SID104189203 | 0.17 | 0.11 | – | – | –
elgi (GeneID 39735) | SID104190034 | 0.28 | 0.37 | – | – | –
